The text below walks through data of PubChem BioAssay AID220 (DTP/NCI, 2004).

The assay deals with CD8F1 mice, subcutaneous mammary adenocarcinoma, T/C%. As to the kind of experiment: NCI In Vivo Anticancer Drug Screen. Data for tumor model Mammary Adenocarcinoma CD8F1 (subcutaneous) in CD8F1. The following applies: higher T/C = larger tumour. The gist of the method: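 Compound-treated versus vehicle-treated mice with transplantable tumors; survival or tumor size compared as T/C.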

The list is a part of this screen's results and no random one: it is rich in T/C values a quarter to a half above the control, in often repeated tests (any T/C) and in doses without a T/C. Further doses and runs are listed elsewhere. T/C is the treated group as % of the vehicle group. Schedule codes are those of the source, taken here to give the interval after Q, in days (D) or hours (H), and the number of doses after X. Some T/C values carry the count of animals alive at the toxicity check (mostly the fifth day); where none is given, no animal had died by that day. Some entries give survivors of the animals treated and no T/C: the source holds a T/C of zero for them, seemingly a mark for toxic or unscored doses. Counts of survivors are from the toxicity check (mostly the fifth day) where no day follows; animals may have died later. Some entries hold several experiments; the results are listed from low to high.

`CN(C)CCOc1ccc2c(c1)C/C(=C/c1ncc([N+](=O)[O-])n1C)C2=O`: the survivor count is, setting by setting: (T/C endpoint: median tumor weight (est.), dose: 200.0 mg/kg/injection, schedule: Q07DX005 (ip), vehicle: saline with Tween-80) 6 of 10 on day 30; (T/C endpoint: median tumor weight (est.), dose: 400.0 mg/kg/injection, schedule: Q07DX005 (ip), vehicle: saline with Tween-80) 0 of 10 on day 30.

With `CCC/C=C/C=C/C(=O)OC1/C(=C/C(=O)OC)CC2CC(C(C)O)OC(=O)CC(O)CC3CC(OC(C)=O)C(C)(C)C(O)(CC4C/C(=C/C(=O)OC)CC(/C=C/C(C)(C)C1(O)O2)O4)O3` (centres undefined), the survivor count (T/C endpoint: median tumor weight change, dose: 0.19 mg/kg/injection, schedule: Q01DX001 (ip), vehicle: saline + alcohol) is 6 of 10 on day 35; the survivor count (T/C endpoint: median tumor weight change, dose: 0.38 mg/kg/injection, schedule: Q01DX001 (ip), vehicle: saline + alcohol) was 0 of 10 on day 35; the survivor count (T/C endpoint: median tumor weight change, dose: 0.75 mg/kg/injection, schedule: Q01DX001 (ip), vehicle: saline + alcohol) is 0 of 10 on day 35; the survivor count (T/C endpoint: median tumor weight change, dose: 1.5 mg/kg/injection, schedule: Q01DX001 (ip), vehicle: saline + alcohol) is 0 of 10 on day 35.

Take `CCCCCCCCCCCCCCC/C([O-])=N/[N+](C)(C)CC(C)O` (centres undefined): the survivor count runs as follows: (T/C endpoint: median tumor weight change, dose: 1000.0 mg/kg/injection, schedule: Q01DX001 (ip), vehicle: saline) 4 of 10 on day 25; (T/C endpoint: median tumor weight change, dose: 2000.0 mg/kg/injection, schedule: Q01DX001 (ip), vehicle: saline) 1 of 10 on day 25.

`CCCCCCCC(=O)[O][Hg][CH2]C1COC([CH2][Hg][O]C(=O)CCCCCCC)CO1` (centres undefined): the survivor count (T/C endpoint: median tumor weight (est.), dose: 50.0 mg/kg/injection, schedule: Q07DX005 (ip), vehicle: saline with Tween-80) was 4 of 10 on day 30.

Take `CCCCOC(=O)/C=C(\Br)C(=O)OCCCC`: the T/C (T/C endpoint: median tumor weight (est.), dose: 12.5 mg/kg/injection, schedule: Q07DX005 (ip), vehicle: saline with Tween-80, evaluated on day 32) is 139 % of control.

On to `CCCCCCCCCCS(=O)CC(CO)NC(=O)/C=C/c1c(C)[nH]c(=O)[nH]c1=O` (centres undefined), for which the T/C (T/C endpoint: median tumor weight (est.), dose: 6.0 mg/kg/injection, schedule: Q07DX005 (ip), vehicle: saline with Tween-80, evaluated on day 30) was 148 % of control [9 of 10 alive on day 30] and the T/C (T/C endpoint: median tumor weight (est.), dose: 12.0 mg/kg/injection, schedule: Q07DX005 (ip), vehicle: saline with Tween-80, evaluated on day 30) is 144 % of control.

For `CC[N](CC)[Ge]([CH2]C)[CH2]C.CC[N](CC)[Ge]([CH2]C)[CH2]C`, the survivor count (T/C endpoint: median tumor weight (est.), dose: 100.0 mg/kg/injection, schedule: Q07DX005 (ip), vehicle: saline) is on record as 0 of 8 on day 30.

In the case of `Cc1cc(O)c(N=Nc2ccc(C(=O)O)cc2)cc1C`, under “T/C endpoint: median tumor weight (est.), dose: 800.0 mg/kg/injection, schedule: Q07DX005 (ip), vehicle: suspension in saline”, the survivor count was 0 of 10 on day 30.

Take `O=C(NO)c1cc(O)c(O)c(O)c1`: the survivor count is 3 of 10 on day 34 (T/C endpoint: median tumor weight change, dose: 1200.0 mg/kg/injection, schedule: Q01DX001 (ip), vehicle: water) and 0 of 10 on day 34 (T/C endpoint: median tumor weight change, dose: 2400.0 mg/kg/injection, schedule: Q01DX001 (ip), vehicle: water).

Take `OC1CCCC2CCC[N-]C12.OC1CCCC2CCC[N-]C12.[Mn+2]` (centres undefined): the survivor count (T/C endpoint: median tumor weight (est.), dose: 400.0 mg/kg/injection, schedule: Q07DX005 (ip), vehicle: Klucel (hydroxypropylcellulose) (HPC)) is recorded as 5 of 10 on day 32.

Turning to `CCCCNCCCNCCCNC(=O)c1csc(-c2csc(CCNC(=O)C(NC(=O)C(C)C(O)C(C)NC(=O)C(NC(=O)c3nc(C(CC(N)=O)NCC(N)C(N)=O)nc(N)c3C)C(OC3OC(CO)C(O)C(O)C3OC3OC(CO)C(O)C(OC(N)=O)C3O)c3cnc[nH]3)C(C)O)n2)n1` (centres undefined), the survivor count (T/C endpoint: median tumor weight (est.), dose: 128.0 mg/kg/injection, schedule: Q07DX005 (ip), vehicle: saline) is given as 0 of 10 on day 30.

Turning to `CC[n+]1c(-c2ccccc2)c2cc(N)ccc2c2ccc(N)cc21`, where the note is “T/C endpoint: median tumor weight (est.), dose: 5.0 mg/kg/injection, schedule: Q07DX005 (ip), vehicle: water, evaluated on day 32”, the T/C is 135 % of control.

As for `S=P(N1CC1)(N1CC1)N1CC1`, the survivor count (T/C endpoint: median tumor weight (est.), dose: 16.0 mg/kg/injection, schedule: Q07DX005 (ip), vehicle: saline) was 6 of 10 on day 30.

Take `CC(=O)C(O)N1C(=O)C=CC1=O` (centres undefined): the T/C (T/C endpoint: median tumor weight (est.), dose: 10.0 mg/kg/injection, schedule: Q07DX005 (ip), vehicle: saline, evaluated on day 30) is 141 % of control [7 of 10 alive].

Consider `CC(C#N)(C#N)N=Nc1ccc(Cl)cc1Cl`, for which, where the note is “T/C endpoint: median tumor weight change, dose: 250.0 mg/kg/injection, schedule: Q01DX001 (ip), vehicle: saline with Tween-80, evaluated on day 28”, the T/C was 133 % of control. The survivor count (T/C endpoint: median tumor weight change, dose: 2000.0 mg/kg/injection, schedule: Q01DX001 (ip), vehicle: saline with Tween-80) is reported as 0 of 9 on day 28.

For `COc1cc(C(=O)c2cc3c(cc2C)OCO3)cc(OC)c1OC`, the survivor count by setting is: (T/C endpoint: median tumor weight change, dose: 500.0 mg/kg/injection, schedule: Q01DX001 (ip), vehicle: Klucel (hydroxypropylcellulose) (HPC)) 3 of 10 on day 32; (T/C endpoint: median tumor weight change, dose: 1000.0 mg/kg/injection, schedule: Q01DX001 (ip), vehicle: Klucel (hydroxypropylcellulose) (HPC)) 0 of 10 on day 29 and 0 of 10 on day 32; (T/C endpoint: median tumor weight change, dose: 2000.0 mg/kg/injection, schedule: Q01DX001 (ip), vehicle: Klucel (hydroxypropylcellulose) (HPC)) 0 of 10 on day 29 and 0 of 10 on day 32.

`CC[C@]1(O)C[C@H](OC2CC(N(C)C)C(OC3CC(O)C(O)C(C)O3)C(C)O2)c2c(cc3c(c2O)C(=O)c2c(O)ccc(O)c2C3=O)[C@H]1C(=O)OC` (some centres undefined): under “T/C endpoint: median tumor weight (est.), dose: 2.0 mg/kg/injection, schedule: Q07DX005 (ip), vehicle: Klucel (hydroxypropylcellulose) (HPC), evaluated on day 32”, the T/C is 136 % of control.

For `COc1cc(NCc2ccc3nc(N)nc(N)c3c2C)cc(OC)c1OC` (tested in a mixture with another compound), the survivor count reads like this: (T/C endpoint: median tumor weight (est.), dose: 236.0 mg/kg/injection, schedule: Q07DX005 (ip), vehicle: water) 0 of 10 on day 30; (T/C endpoint: median tumor weight (est.), dose: 354.0 mg/kg/injection, schedule: Q07DX005 (ip), vehicle: water) 0 of 10 on day 30.
